Screen size: about 340,000 compounds; about 170 (0.05%) were called active. Inconclusive means that the source gave no clear call. Such entries were picked first, then a sample of the others. Calls follow the shape of the dose curve; as a rule, active = well fitted inhibition curve with a large enough effect in the signal ratio, with a control signal flat (not every such curve was filed as active); inconclusive = small, poorly fitted or top-dose-only effect, or effect the other way, or a change in a side signal; inactive = flat fitted curve, though single readings scatter; the % refers to the signal ratio. A potency beside an inconclusive call is a rough fit, not a confirmed value.
Assay: qHTS Assay to Find Inhibitors of Chronic Active B-Cell Receptor Signaling;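 as to activity change, negative = inhibition: plate controls were basal doxycycline-induced cells for no effect and cells given 10 µM MG132 for full effect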
Settings: ABC-DLBCL IkBa-CBG/CBR reporter, luminescence ratio (green luciferase fused to IkBa over red control in TMD8 lymphoma cells), 4 h; activity change, negative = inhibition: at 46.1 µM (top of the series)
Outline: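 Doxycycline induced both beetle luciferases in TMD8 lymphoma cells; IKK-driven degradation limits the IkappaBalpha-fused green signal, while red luminescence normalises for cell number and nonspecific effects. Compounds tested up to 46 uM, 4 hrs.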
Potency is read from the fitted curve at half-maximal effect.

Structure (SMILES)	activity change, negative = inhibition	Potency
COc1ccc(S(=O)(=O)N(C)C[C@H]2Oc3c(NC(=O)Nc4ccc5c(c4)OCO5)cccc3C(=O)N([C@H](C)CO)C[C@@H]2C)cc1	inactive	
CCC(=O)N1CCN(c2nc3ccc(Br)cc3s2)CC1	inconclusive: 5.22%	
O/N=C1\CC/C(=N\O)c2nn(-c3ccccc3Cl)nc21		inconclusive: 35.5 µM [falling, partial curve, poor fit]
Cc1ccc(F)cc1NC(=O)/C=C/c1ccc(S(=O)(=O)N2CCOCC2)cc1	inconclusive: -14.7%	
CCCSc1nc(=S)n(Cc2ccccc2)c(C)c1C(C)=O		inconclusive: 25.1 µM [falling, single point]
O=S(=O)(c1ccc2c(c1)nc1n2CCC1)N1CCOCC1		inconclusive: 20.6 µM [falling, partial curve]
Cc1ccc(-n2c3c(cc(C(=O)NC4CCSC4=O)c2=O)C(=O)CCC3)cc1 (stereo not given)	inconclusive: -1.44%	
CCOC(=O)c1nnsc1-c1ccc(-c2snnc2C(=O)OCC)cc1	inconclusive: 5.79%	
CCN(Cc1ccccc1)C(=S)Nc1cc(C(=O)OC)ccc1C(=O)OC	inconclusive: -0.332%	
CN(C)S(=O)(=O)c1ccc(NC=C(C#N)C#N)cc1	inconclusive: -2.49%	
CCn1cc([N+](=O)[O-])c(C(=O)Nc2nc3ccc(OC)cc3s2)n1		inconclusive: 17.8 µM [falling, single point]
c1csc(-c2noc(CN3CCc4sccc4C3)n2)c1	inconclusive: -0.0328%	
NC(=O)[C@@H]1CC2(CC(c3cccc(NC(=O)CC(c4ccccc4)c4ccccc4)c3)=NO2)CN1C(=O)COc1ccc(Cl)cc1 (stereo not given in full)	inactive	
COc1ccccc1N/C(=N/S(=O)(=O)c1ccc(C)cc1)c1ccccc1	inactive	
CC(C)(C)NC(=O)c1cc2c(ccc3ccccc32)oc1=O	inconclusive: 10.9%	
O=C(Nc1ccc(Oc2ccccc2)nc1)C1CCCCN1Cc1ccc(O)cc1 (stereo not given)	inconclusive: 5.05%	
Cc1csc(=Nc2cccnc2)n1CC1CCCCC1	inconclusive: -0.0208%	
COC(=O)c1ccc(C#Cc2ccccc2)o1	inconclusive: -0.15%	
CCOc1cc(CN2CCN(CCc3ccccc3)C(CCO)C2)ccc1OC (stereo not given)	inactive	
CCOC(=O)[C@@H]1[C@H]2COc3ccccc3[C@@H]2N2C(=O)N(c3ccc(C(F)(F)F)cc3)C(=O)[C@@]12C	inactive	
COc1ccc(/C(O)=C2/C(=O)C(=O)N(c3ccccn3)C2c2ccc(F)cc2)cc1 (stereo not given)	inactive	
CN(Cc1ccccc1)C(=O)COc1ccc(Br)cc1Cl	inconclusive: 2.64%	

In a second layout: 3 of the compounds above
CCOc1cc(CN2CCN(CCc3ccccc3)C(CCO)C2)ccc1OC (stereo not given)
  activity change, negative = inhibition: inactive
COc1ccc(/C(O)=C2/C(=O)C(=O)N(c3ccccn3)C2c2ccc(F)cc2)cc1 (stereo not given)
  activity change, negative = inhibition: inactive
CN(Cc1ccccc1)C(=O)COc1ccc(Br)cc1Cl
  activity change, negative = inhibition: inconclusive: 2.64%

Continued:

Structure (SMILES)	activity change, negative = inhibition	Potency
COC(=O)c1cc(=O)n(-c2ccc(F)cc2)c(=Nc2ccc(F)cc2)s1		inconclusive: 20.6 µM [cytotoxic, single point]
CCc1cn(C2CC(O)C(CO)O2)c(=O)[nH]c1=O (stereo not given)	inactive	
CN(C)c1nc(N(C)C)nc(N(C#N)Cc2ccc(Cl)cc2)n1	inconclusive: 2.94%	
Cc1ccc(OCC(=O)NC(=S)Nc2ccc(Br)cn2)cc1	inconclusive: 15.3%	
CC(C)SCCCOc1ccc(C(C)(C)C)cc1	inactive	
CCc1nnc(NC(=O)CSc2nnc(Cc3ccccc3)o2)s1	inactive	
CC(C)Cc1nc(N2CCN(C(=O)c3ccco3)CC2)c(C#N)c2c1CCC2	inconclusive: -15.3%	
COc1cccc(CN2CCN(c3ncccn3)CC2)c1	inconclusive: 2.51%	
CSc1ccccc1NC(=O)c1noc2c1CCC2	inconclusive: -16.6%	
O=C(O)c1ccc(-n2c(-c3ccccc3)n[nH]c2=S)cc1		inconclusive: 11.2 µM [falling, partial curve]
CSc1nc2ccccc2n1Cc1c(Cl)cccc1Cl	inactive	
Cc1ccc(-c2nn(C)c(=O)c3ccccc23)cc1S(=O)(=O)N1CCCC1	inconclusive: -5.13%	
COc1cc2[nH]c3c(N4CCN(c5ccccn5)CC4)ncnc3c2cc1OC	inconclusive: -2.01%	
COc1ccc(-c2nc3c4ccccc4ccn3c2CN2CCOCC2)cc1OC	inconclusive: 0.677%	
O=C(Nc1ccc2ncccc2c1)Nc1ccc2ncccc2c1	inconclusive: 0.494%	
Cc1nc(NCc2ccco2)c2c3c(sc2n1)CCC3	inconclusive: 17.5%	
N#CCCn1nc(-c2ccccc2)cc1Nc1ccccc1NC(=O)C(F)(F)F	inconclusive: -10.5%	
CCOc1ccccc1C(=O)NCCCN1CCN(CCCNC(=O)c2ccccc2OCC)CC1	inconclusive: 2.58%	
Cc1ccc(OCCCCN2CCc3ccccc3C2)cc1	inconclusive: 6.39%	
Cc1ccc(C)c(NC(=O)CN(C)C(=O)CSCc2c(C)noc2C)c1	inactive	
C/C(=N\NC(=O)c1ccoc1C)c1ccccc1		inconclusive: 31.6 µM [falling, partial curve]
Cc1ccc2c(c1)c1nc3ccccc3nc1n2CCN1CCOCC1	inconclusive: -2.53%	

Molecules listed so far with an aryl thioether with sulfur outside any ring, in the order listed:
Structure (SMILES)	activity change, negative = inhibition	Potency
CCCSc1nc(=S)n(Cc2ccccc2)c(C)c1C(C)=O		inconclusive: 25.1 µM [falling, single point]
CCc1nnc(NC(=O)CSc2nnc(Cc3ccccc3)o2)s1	inactive	
CSc1ccccc1NC(=O)c1noc2c1CCC2	inconclusive: -16.6%	
CSc1nc2ccccc2n1Cc1c(Cl)cccc1Cl	inactive	

Next part

Structure (SMILES)	activity change, negative = inhibition	Potency
COc1ccccc1CNc1ncnc2c1nnn2Cc1ccccc1		inconclusive: 1.26 µM [falling, partial curve]
O=C(NC1CCCC1)c1cc(-c2ccc(F)cc2)on1		inconclusive: 5.62 µM [rising, single point]
Nc1ncnc2c1ncn2[C@@H]1O[C@H](CNCC(O)CO)[C@@H](O)[C@H]1O (stereo not given in full)	inconclusive: 7.45%	
Cc1no[n+]([O-])c1COc1cccc(/C=N/Nc2nncn2N)c1	inconclusive: -5.36%	
Cc1ccccc1C(=O)Nc1nnc(-c2ccco2)s1		inconclusive: 10 µM [falling, partial curve]
O=C(NCC(c1ccc(F)cc1)N1CCOCC1)c1ccc([N+](=O)[O-])o1 (stereo not given)	inactive	
CCOc1ccc(OC(=O)c2ccc3c(=O)n4c(nc3c2)CCC4)cc1	inactive	
Cn1c(=O)n(C)c2cc(S(=O)(=O)NCc3ccco3)ccc21	inactive	
CC(=O)NCCNC(=O)CCNC(=O)c1ccc(Cl)cc1	inconclusive: 4.83%	
CCC(C)(C)n1nnnc1C(c1cc2cc(C)cc(C)c2[nH]c1=O)N1CCN(Cc2ccc3c(c2)OCO3)CC1 (stereo not given)	inconclusive: 8.11%	
COc1ccc(C2=NO[C@@H]3C(=O)N(c4cccc(C)c4C)C(=O)[C@H]23)cc1OC	inconclusive: 2.03%	
COc1ccc(CN2CC(C(=O)NCCN3CCOCC3)CC2=O)cc1 (stereo not given)	inconclusive: -0.0807%	
CCN1CCSc2ccc(C(=O)NCc3ccccc3C)cc21		inconclusive: 7.94 µM [falling, partial curve, poor fit]
CN1CCN(C(=O)c2cc3sccc3n2CC(=O)c2ccccc2)CC1	inactive	
COC(=O)C(C)Sc1snnc1-c1ccccc1 (stereo not given)	inconclusive: 16.6%	
C=CCCN([C@@H](C)C(=O)OC)S(=O)(=O)c1ccccc1Br	inconclusive: -4.82%	
O=C(/C=C/c1ccccc1Cl)OCC(=O)c1ccc[nH]1	inconclusive: 6.07%	
CCOC(=O)c1cnc2ccc(C)cc2c1Sc1ccccc1		inconclusive: 20.6 µM [falling, single point]
Cc1ccc(CONC(=O)c2cccc(C)c2)cc1		inconclusive: 4.11 µM [falling, single point]
CCN(Cc1ccccc1)S(=O)(=O)c1ccc2c(c1)NC(=O)CS2	inactive	
COc1ccccc1CN1CN(S(=O)(=O)c2ccccc2)c2nc3ccccc3nc21	inconclusive: 19.7%	
CCc1ccc(NC(=O)CN2C(=O)c3ccccc3Sc3ccc(C(=O)N4CCCC4)cc32)cc1	inactive	

Structure (SMILES)	activity change, negative = inhibition	Potency
CCN(C(=O)COC(=O)CNC(=O)C12CC3CC(CC(C3)C1)C2)C1CCS(=O)(=O)C1 (stereo not given)	inconclusive: 4.16%	
O=C(Nc1cccc(-n2cccn2)c1)C1CCCN(Cc2ccccc2F)C1 (stereo not given)	inactive	
COc1ccc(C(CNC(=O)C(C)(C)Oc2ccc(Cl)cc2)N2CCCC2)cc1 (stereo not given)	inactive	
CCC(C)Oc1ccc(/C=C/c2[nH]c(=O)[nH]c(=O)c2[N+](=O)[O-])cc1OC (stereo not given)	inactive	
CCC(C)NC(=O)C(NS(=O)(=O)c1cccc2nsnc12)c1ccccc1 (stereo not given)	inconclusive: 9.14%	
CCOC(=O)N1CCN(CC(=O)Nc2cc(OCC)ccc2OCC)CC1	inconclusive: 9.34%	
O=C(Nc1ccc(-c2nc3ccccc3[nH]2)cc1)c1cccc(N2C(=O)CCC2=O)c1	inactive	
COc1cc(/C=C/C(=O)OCC(=O)NCCc2ccccc2)ccc1OC(F)F	inconclusive: -1.15%	
O=C(/C(=C\c1ccccc1)c1nc2ccccc2[nH]1)c1ccc(Cl)cc1	inconclusive: 0.159%	
O=C(CN1CCN(C(=O)c2cncn2-c2ccccc2)CC1)Nc1ccccc1Cl	inconclusive: -1.12%	
CCOC(=O)c1c(C)[nH]c(C)c1C(=O)COC(=O)/C=C/c1ccccc1[N+](=O)[O-]	inconclusive: -1.97%	
C=CCN=C1CC(C)(C)CC(=O)/C1=C(/O)CCC(=O)OC	inactive	
C=CCNc1cnn(CC(C)=O)c(=O)c1Br		inconclusive: 0.92 µM [falling, full curve, poor fit]
CCOC(CNC(=O)Cn1nc(Cc2ccncc2)c2ccccc2c1=O)OCC	inconclusive: 1.5%	
CCOc1ccc(C(C)=O)cc1CSc1nnc(N)s1	inconclusive: -0.321%	
CC1CC(C)CN(S(=O)(=O)c2ccc(C(=O)N3CCN(c4ccccc4)CC3)cc2)C1 (stereo not given)	inactive	
CCOC(=O)c1cc(-c2ccccc2)n(CCCC(=O)Nc2ccccc2C)c1C	inactive	
CCN1CCN(C(=O)C2CCCN(S(=O)(=O)c3cc(Cl)ccc3Cl)C2)CC1 (stereo not given)	inactive	
Nc1ccccc1N=Cc1ccc(-c2cccc(Cl)c2)o1		inconclusive: 35.5 µM [falling, single point]

Reference: PubChem BioAssay AID493014 (National Center for Advancing Translational Sciences (NCATS), 2011)
